{"source": "PubChem BioAssay AID1259308 (NCATS, 2017)", "screen": "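Genes whose loss raises luciferase production in HEK293 cells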 (primary screen)", "cells": "human HEK293 embryonic kidney cells stably expressing firefly luciferase (HEK-CMV-Luc2-Hygro)", "knock-down reagent": "single siRNA against human genes, 0.8 pmol siRNA per well", "time to read-out": "72 h", "detection": "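Luciferase light (ONE-Glo) measured on one replicate plate set and viability (CellTiter-Glo) on the other, scaled to a negative control siRNA, with robust z-scores and luciferase per cell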", "direction": "total luciferase, z-score: higher = more reporter protein produced", "hit rule": "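An siRNA counts as active if its total luciferase robust z-score exceeds 3; genes with two or more such siRNAs out of three were retested with fresh siRNAs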", "meaning of the calls": "active = raised luciferase; inactive = no rise", "note": "In all, the deposit lists about 59,000 reagents; below is a random part of them. About 1,510 of them (2.6%) were called active. 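Calls use total luciferase alone and ignore viability, so some active siRNAs may act by altering cell number.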 Reagents against one gene are numbered here. Not all columns of the deposit are shown. Reagent sequences are not shown."}
{"gene symbol":"CDKN2AIP","siRNA no.":1,"total luciferase, z-score":1.9,"call":"inactive"}
{"gene symbol":"CDKN2AIP","siRNA no.":2,"total luciferase, z-score":-0.786,"call":"inactive"}
{"gene symbol":"CDKN2AIP","siRNA no.":3,"total luciferase, z-score":-0.766,"call":"inactive"}
{"gene symbol":"CCN1","siRNA no.":1,"total luciferase, z-score":2.4,"call":"inactive"}
{"gene symbol":"CCN1","siRNA no.":2,"total luciferase, z-score":0.85,"call":"inactive"}
{"gene symbol":"CCN1","siRNA no.":3,"total luciferase, z-score":0.33,"call":"inactive"}
{"gene symbol":"ATXN1","siRNA no.":1,"total luciferase, z-score":-0.0557,"call":"inactive"}
{"gene symbol":"ATXN1","siRNA no.":2,"total luciferase, z-score":-1.76,"call":"inactive"}
{"gene symbol":"ATXN1","siRNA no.":3,"total luciferase, z-score":5.07,"call":"active"}
{"gene symbol":"DDX3Y","siRNA no.":1,"total luciferase, z-score":0.798,"call":"inactive"}
{"gene symbol":"DDX3Y","siRNA no.":2,"total luciferase, z-score":-0.139,"call":"inactive"}
{"gene symbol":"DDX3Y","siRNA no.":3,"total luciferase, z-score":0.473,"call":"inactive"}

Copied from above (2 entries):
{"gene symbol":"CCN1","siRNA no.":3,"total luciferase, z-score":0.33,"call":"inactive"}
{"gene symbol":"ATXN1","siRNA no.":1,"total luciferase, z-score":-0.0557,"call":"inactive"}
